For the assay, the target named is T1, human ferroportin (FPN), wild type, reconstituted in lipid nanodisc (human), Q9NP59.
T1 chain: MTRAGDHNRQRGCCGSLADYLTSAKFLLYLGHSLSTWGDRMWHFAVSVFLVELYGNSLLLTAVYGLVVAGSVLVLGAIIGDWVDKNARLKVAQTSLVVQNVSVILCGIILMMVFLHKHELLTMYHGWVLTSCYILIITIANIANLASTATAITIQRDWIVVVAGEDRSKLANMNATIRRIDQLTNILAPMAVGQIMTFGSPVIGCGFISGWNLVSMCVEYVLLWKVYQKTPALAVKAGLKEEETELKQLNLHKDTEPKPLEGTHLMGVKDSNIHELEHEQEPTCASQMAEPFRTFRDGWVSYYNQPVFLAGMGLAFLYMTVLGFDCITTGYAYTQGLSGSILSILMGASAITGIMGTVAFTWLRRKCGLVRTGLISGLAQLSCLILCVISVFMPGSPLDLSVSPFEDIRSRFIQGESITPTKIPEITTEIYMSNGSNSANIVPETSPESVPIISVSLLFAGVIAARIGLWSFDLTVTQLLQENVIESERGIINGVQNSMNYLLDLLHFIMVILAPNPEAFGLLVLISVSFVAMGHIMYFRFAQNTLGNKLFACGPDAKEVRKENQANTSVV
Briefly: cryo-EM structure. Particulars: remark: other sources report otherwise.

No constants are given. Whether binding was seen depends on the method and setting.

B1: human ferroportin (FPN), wild type, reconstituted in lipid nanodisc, Q9NP59 1-571 (protein)
chain: MTRAGDHNRQRGCCGSLADYLTSAKFLLYLGHSLSTWGDRMWHFAVSVFLVELYGNSLLLTAVYGLVVAGSVLVLGAIIGDWVDKNARLKVAQTSLVVQNVSVILCGIILMMVFLHKHELLTMYHGWVLTSCYILIITIANIANLASTATAITIQRDWIVVVAGEDRSKLANMNATIRRIDQLTNILAPMAVGQIMTFGSPVIGCGFISGWNLVSMCVEYVLLWKVYQKTPALAVKAGLKEEETELKQLNLHKDTEPKPLEGTHLMGVKDSNIHELEHEQEPTCASQMAEPFRTFRDGWVSYYNQPVFLAGMGLAFLYMTVLGFDCITTGYAYTQGLSGSILSILMGASAITGIMGTVAFTWLRRKCGLVRTGLISGLAQLSCLILCVISVFMPGSPLDLSVSPFEDIRSRFIQGESITPTKIPEITTEIYMSNGSNSANIVPETSPESVPIISVSLLFAGVIAARIGLWSFDLTVTQLLQENVIESERGIINGVQNSMNYLLDLLHFIMVILAPNPEAFGLLVLISVSFVAMGHIMYFRFAQNTLGNKLFACGPDAKEVRKENQANTSVV
For B1, the binding result is “no binding”.

Source of the values: doi:10.1101/2020.03.16.993006 (bioRxiv, 2020).
